Here are results for one compound from US20170304388A1, “NEW INDICATION OF CARDIOVASCULAR DRUGS FOR PREPARATION OF CANCER INHIBITION PHARMACEUTICAL COMPOSITION” (LAUNX BIOMEDICAL CO., LTD., priority 2014, published 2017).

Each structure is given as a SMILES string.

In this assay the test system is cancer cell lines. Kind of assay: Growth inhibitory effects on the panel of cancer cell lines. Format: cell-based.

As for `Clc1ccc2c(c1)CCc1cccnc1C2=C1CCNCC1` [Desloratadine], the “inhibition effect on different cancer cell lines (in words)” value was “significant inhibition effect”.
